These are yes or no findings as the source states them, for the method shown. Some entries that bind do so weakly or less than the wild type.

Amino acid sequences for entries named in this document (tags omitted). A change or cut given only in a name is not applied to a line headed by its entry. Residues count along the entry.
UniProt P20273: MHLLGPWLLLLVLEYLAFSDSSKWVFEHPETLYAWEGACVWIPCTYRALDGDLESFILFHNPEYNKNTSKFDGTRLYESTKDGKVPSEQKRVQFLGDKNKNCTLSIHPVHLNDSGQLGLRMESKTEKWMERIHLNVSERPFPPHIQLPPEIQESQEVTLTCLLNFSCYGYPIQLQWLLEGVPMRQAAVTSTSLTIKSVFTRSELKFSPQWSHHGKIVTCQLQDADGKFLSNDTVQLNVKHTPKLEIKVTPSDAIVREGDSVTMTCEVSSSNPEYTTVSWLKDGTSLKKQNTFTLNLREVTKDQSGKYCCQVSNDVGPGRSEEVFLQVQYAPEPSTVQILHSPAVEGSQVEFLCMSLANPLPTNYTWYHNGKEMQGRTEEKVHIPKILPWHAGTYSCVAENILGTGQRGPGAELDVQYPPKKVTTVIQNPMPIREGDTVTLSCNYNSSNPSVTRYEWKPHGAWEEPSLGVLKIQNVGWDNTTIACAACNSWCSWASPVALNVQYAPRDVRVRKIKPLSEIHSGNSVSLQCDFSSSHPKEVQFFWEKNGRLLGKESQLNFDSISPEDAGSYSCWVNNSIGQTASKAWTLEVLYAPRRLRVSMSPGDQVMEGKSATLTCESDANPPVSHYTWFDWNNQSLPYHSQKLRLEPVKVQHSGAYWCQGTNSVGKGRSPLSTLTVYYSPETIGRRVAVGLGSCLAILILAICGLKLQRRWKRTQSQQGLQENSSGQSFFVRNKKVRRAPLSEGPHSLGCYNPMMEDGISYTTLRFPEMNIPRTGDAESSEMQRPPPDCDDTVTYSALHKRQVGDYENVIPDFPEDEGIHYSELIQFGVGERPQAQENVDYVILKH
cell surface CD22 on Ramos (CD22+) cells: residues 20-847 of P20273
CD22 Protein (His Tag), Sino Biological Cat. No. 11958-H08H: residues 20-687 of P20273

Data on three molecules can be found in patent US20220288219A1.

For experiment [1], the target named is cell surface CD22 on Ramos (CD22+) cells (human) (UniProt P20273). Nature of the experiment: flow cytometry on Ramos cells.
Experiment [2] addresses CD22 (Acro Biosystems, Cat #CD2-H52H8) (UniProt P20273). Nature of the experiment: BLI, IgG on anti-human Fc sensor, 50 nM CD22. (In general: Biolayer interferometry detects binding as a change in optical thickness at a sensor tip.)
In experiment [3] the target is CD22 Protein (His Tag), Sino Biological Cat. No. 11958-H08H (UniProt P20273). Nature of the experiment: BLI, IgG on anti-human Fc sensor, 50 nM CD22.

B1: MYT1331 (antibody, V domains shown)
VH: EVQLVESGGGLVQPGGSLRLSCAASGYEFSRSWMNWVRQAPGKGLEWVGRIYPGDGDTNYSGKFKGRFTISADTSKNTAYLQMNSLRAEDTAVYYCARDGSSWDWYHDVWGQGTLVTVSS
VL: DIQMTQSPSSLSASVGDRVTITCRSSQSIVHSVGNTFLEWYQQKPGKAPKLLIYKVSNRFSGVPSRFSGSGSGTDFTLTISSLQPEDFATYYCFQGSQFPYTFGQGTKVEIK
For the molecule B1, the binding entry in experiment [1], in experiment [2] and in experiment [3] was “binds” throughout.

B2: MYT4405 (antibody, V domains shown)
VH: EVQLVQSGAEVKKPGASVKVSCKASGYRFTHYWIHWVRQAPGQGLEWIGGINPGNNYATYRRKFQGRVTMTADTSTSTVYMELSSLRSEDTAVYYCTREGYGHYGAWFAYWGQGTLVTVSS
VL: DVQVTQSPSSLSASVGDRVTITCRSSQSLANSYGNTFLSWYLHKPGKAPQLLIYGISNRFSGVPDRFSGSGSGTDFTLTISSLQPEDFATYYCLQGTHQPYTFGQGTKVEIK
As to B2, the binding result in experiment [1] and in experiment [3] was “binds” in each case.

B3: MYT4424 (antibody, V domains shown)
VH: EVQLVQSGAEVKKPGASVKVSCKASGYRFTHYWIHWVRQAPGQGLEWIGGINPGNNYAHYRRKFQGRVTMTADTSTSTVYMELSSLRSEDTAVYYCTREGYGHYGAWFAYWGQGTLVTVSS
VL: DVQVTQSPSSLSASVGDRVTITCRSSQSLANSYGNTFLSWYLHKPGKAPQLLIYGISNRFSGVPDRFSGSGSGTDFTLTISSLQPEDFATYYCLQGTHQPYTFGQGTKVEIK
As for B3, the binding result in experiment [1] and in experiment [3] was “binds” in each case.
